# Values from PubChem BioAssay AID1259308 (NCATS, 2017)
# Purpose: 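Genes whose loss raises luciferase production in HEK293 cells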 (primary screen)
# System: human HEK293 embryonic kidney cells stably expressing firefly luciferase (HEK-CMV-Luc2-Hygro)
# Knock-down reagent: single siRNA against human genes, 0.8 pmol siRNA per well
# Time to read-out: 72 h
# Measured: 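Luciferase light (ONE-Glo) measured on one replicate plate set and viability (CellTiter-Glo) on the other, scaled to a negative control siRNA, with robust z-scores and luciferase per cell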
# Scale: total luciferase, z-score and total luciferase, % of control: higher = more reporter protein produced
# Active means: 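Active when the median/MAD z-score for overall luciferase is greater than 3; a gene was taken forward for validation with new siRNAs if at least two of its three siRNAs passed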
# Meaning of the calls: active = raised luciferase; inactive = no rise
# In all, the deposit lists about 59,000 reagents; shown is a random part of them. About 1,510 of them (2.6%) count as active. 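Calls use total luciferase alone and ignore viability, so some active siRNAs may act by altering cell number.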 Entries without a mark were called inactive. Reagents against one gene are numbered here. Further read-outs or replicates are left out here. No sequences are given here.
Target gene,reagent,"total luciferase, z-score","total luciferase, % of control"
PRKCA,1,-0.011,81.7
PRKCA,2,-1.24,57.2
PRKCA,3,-0.643,69.1
TLR5,1,-0.14,79.1
TLR5,2,-1.56,50.8
TLR5,3,-0.589,70.2
LRRCC1,1,0.355,88.9
LRRCC1,2,0.239,86.6
LRRCC1,3,-1.19,58.3
MRGPRD,1,0.415,90.1
MRGPRD,2,-0.78,66.4
MRGPRD,3,-0.44,73.1
MST1R,1,-1.8,46.1
MST1R,2,1.29,107
MST1R,3,-1.15,59.1
ZNF79,1,-0.173,78.4
ZNF79,2,-0.641,69.1
ZNF79,3,-3.04,21.5
IL13RA2,1,-0.311,75.7
IL13RA2,2,-0.492,72.1
IL13RA2,3,-0.19,78.1
RETREG1,1,-0.49,72.1
RETREG1,2,-1.08,60.3
RETREG1,3,-1.3,56

Reformatted: results already given
ZNF79 #2
- total luciferase, z-score: -0.641
- total luciferase, % of control: 69.1

ZNF79 #3
- total luciferase, z-score: -3.04
- total luciferase, % of control: 21.5
